# Source: article doi:10.1101/2021.03.11.435015
# Sequences of proteins named here, by UniProt entry; tags and fusion partners are left off.
# UniProt Q80U78: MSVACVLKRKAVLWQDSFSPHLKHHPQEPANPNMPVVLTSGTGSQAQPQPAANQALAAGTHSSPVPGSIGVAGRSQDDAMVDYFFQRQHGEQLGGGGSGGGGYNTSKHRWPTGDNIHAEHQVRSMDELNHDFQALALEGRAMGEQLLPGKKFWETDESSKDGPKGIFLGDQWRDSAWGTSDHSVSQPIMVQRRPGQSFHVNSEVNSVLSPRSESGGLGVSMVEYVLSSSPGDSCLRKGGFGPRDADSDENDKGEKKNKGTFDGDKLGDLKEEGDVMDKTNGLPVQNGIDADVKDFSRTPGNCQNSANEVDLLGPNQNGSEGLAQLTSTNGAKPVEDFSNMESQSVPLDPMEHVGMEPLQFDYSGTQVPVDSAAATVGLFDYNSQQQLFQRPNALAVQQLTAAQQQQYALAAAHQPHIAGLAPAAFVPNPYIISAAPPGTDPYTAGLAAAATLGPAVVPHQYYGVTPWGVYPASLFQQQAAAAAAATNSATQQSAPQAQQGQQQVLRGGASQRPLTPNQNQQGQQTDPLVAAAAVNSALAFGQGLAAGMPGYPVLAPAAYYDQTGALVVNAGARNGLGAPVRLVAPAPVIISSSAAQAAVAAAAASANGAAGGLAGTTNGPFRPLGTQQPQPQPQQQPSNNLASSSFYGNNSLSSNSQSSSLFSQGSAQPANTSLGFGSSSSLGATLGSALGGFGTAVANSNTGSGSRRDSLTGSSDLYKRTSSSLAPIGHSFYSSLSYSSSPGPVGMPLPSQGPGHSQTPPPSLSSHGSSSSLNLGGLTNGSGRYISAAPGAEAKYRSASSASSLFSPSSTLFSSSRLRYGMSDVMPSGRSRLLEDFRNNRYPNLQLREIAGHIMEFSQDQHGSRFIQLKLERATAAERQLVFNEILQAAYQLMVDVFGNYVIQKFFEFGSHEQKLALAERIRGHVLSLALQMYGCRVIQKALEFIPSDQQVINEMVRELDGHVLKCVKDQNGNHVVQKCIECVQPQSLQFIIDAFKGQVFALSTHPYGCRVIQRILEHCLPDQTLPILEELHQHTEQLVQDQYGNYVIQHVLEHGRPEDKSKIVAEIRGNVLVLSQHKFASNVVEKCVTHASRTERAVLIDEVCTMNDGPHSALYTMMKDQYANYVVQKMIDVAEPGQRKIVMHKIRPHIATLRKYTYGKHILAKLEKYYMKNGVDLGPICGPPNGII
# UniProt Q8CJG0: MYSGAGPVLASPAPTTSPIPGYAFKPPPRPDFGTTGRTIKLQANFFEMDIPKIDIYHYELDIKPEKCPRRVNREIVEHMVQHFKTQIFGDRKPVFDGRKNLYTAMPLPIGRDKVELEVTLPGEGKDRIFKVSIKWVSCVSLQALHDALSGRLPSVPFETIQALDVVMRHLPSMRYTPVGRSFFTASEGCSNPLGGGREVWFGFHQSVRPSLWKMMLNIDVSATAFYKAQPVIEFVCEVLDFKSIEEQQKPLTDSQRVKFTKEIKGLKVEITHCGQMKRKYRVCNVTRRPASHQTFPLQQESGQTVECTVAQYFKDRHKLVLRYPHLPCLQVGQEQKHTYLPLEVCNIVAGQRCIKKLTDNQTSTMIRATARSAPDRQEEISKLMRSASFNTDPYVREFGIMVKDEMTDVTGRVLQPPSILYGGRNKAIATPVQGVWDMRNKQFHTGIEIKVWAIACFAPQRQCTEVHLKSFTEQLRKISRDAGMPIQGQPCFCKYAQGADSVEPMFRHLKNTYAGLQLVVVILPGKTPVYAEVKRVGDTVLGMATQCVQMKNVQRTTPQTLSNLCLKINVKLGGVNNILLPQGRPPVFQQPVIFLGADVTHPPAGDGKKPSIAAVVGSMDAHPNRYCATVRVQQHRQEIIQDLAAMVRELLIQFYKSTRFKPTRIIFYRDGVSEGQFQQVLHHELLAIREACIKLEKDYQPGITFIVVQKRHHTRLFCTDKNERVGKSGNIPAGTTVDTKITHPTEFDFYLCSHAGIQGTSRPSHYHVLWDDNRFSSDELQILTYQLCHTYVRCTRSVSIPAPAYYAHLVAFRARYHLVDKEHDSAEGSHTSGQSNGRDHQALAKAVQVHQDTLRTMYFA
# UniProt Q9R1K5: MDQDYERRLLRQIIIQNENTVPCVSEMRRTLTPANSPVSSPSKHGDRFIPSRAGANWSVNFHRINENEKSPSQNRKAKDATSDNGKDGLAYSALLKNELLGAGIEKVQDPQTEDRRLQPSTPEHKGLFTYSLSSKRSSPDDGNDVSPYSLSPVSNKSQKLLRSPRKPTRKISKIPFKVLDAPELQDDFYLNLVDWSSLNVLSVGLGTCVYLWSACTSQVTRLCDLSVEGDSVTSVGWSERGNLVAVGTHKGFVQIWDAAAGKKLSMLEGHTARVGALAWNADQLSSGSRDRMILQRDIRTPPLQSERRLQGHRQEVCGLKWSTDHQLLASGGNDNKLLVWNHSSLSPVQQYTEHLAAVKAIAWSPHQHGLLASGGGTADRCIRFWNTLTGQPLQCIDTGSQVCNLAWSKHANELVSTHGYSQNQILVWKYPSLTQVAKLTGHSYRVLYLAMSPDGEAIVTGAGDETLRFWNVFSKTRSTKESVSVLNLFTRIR
# UniProt Q6ZQ08: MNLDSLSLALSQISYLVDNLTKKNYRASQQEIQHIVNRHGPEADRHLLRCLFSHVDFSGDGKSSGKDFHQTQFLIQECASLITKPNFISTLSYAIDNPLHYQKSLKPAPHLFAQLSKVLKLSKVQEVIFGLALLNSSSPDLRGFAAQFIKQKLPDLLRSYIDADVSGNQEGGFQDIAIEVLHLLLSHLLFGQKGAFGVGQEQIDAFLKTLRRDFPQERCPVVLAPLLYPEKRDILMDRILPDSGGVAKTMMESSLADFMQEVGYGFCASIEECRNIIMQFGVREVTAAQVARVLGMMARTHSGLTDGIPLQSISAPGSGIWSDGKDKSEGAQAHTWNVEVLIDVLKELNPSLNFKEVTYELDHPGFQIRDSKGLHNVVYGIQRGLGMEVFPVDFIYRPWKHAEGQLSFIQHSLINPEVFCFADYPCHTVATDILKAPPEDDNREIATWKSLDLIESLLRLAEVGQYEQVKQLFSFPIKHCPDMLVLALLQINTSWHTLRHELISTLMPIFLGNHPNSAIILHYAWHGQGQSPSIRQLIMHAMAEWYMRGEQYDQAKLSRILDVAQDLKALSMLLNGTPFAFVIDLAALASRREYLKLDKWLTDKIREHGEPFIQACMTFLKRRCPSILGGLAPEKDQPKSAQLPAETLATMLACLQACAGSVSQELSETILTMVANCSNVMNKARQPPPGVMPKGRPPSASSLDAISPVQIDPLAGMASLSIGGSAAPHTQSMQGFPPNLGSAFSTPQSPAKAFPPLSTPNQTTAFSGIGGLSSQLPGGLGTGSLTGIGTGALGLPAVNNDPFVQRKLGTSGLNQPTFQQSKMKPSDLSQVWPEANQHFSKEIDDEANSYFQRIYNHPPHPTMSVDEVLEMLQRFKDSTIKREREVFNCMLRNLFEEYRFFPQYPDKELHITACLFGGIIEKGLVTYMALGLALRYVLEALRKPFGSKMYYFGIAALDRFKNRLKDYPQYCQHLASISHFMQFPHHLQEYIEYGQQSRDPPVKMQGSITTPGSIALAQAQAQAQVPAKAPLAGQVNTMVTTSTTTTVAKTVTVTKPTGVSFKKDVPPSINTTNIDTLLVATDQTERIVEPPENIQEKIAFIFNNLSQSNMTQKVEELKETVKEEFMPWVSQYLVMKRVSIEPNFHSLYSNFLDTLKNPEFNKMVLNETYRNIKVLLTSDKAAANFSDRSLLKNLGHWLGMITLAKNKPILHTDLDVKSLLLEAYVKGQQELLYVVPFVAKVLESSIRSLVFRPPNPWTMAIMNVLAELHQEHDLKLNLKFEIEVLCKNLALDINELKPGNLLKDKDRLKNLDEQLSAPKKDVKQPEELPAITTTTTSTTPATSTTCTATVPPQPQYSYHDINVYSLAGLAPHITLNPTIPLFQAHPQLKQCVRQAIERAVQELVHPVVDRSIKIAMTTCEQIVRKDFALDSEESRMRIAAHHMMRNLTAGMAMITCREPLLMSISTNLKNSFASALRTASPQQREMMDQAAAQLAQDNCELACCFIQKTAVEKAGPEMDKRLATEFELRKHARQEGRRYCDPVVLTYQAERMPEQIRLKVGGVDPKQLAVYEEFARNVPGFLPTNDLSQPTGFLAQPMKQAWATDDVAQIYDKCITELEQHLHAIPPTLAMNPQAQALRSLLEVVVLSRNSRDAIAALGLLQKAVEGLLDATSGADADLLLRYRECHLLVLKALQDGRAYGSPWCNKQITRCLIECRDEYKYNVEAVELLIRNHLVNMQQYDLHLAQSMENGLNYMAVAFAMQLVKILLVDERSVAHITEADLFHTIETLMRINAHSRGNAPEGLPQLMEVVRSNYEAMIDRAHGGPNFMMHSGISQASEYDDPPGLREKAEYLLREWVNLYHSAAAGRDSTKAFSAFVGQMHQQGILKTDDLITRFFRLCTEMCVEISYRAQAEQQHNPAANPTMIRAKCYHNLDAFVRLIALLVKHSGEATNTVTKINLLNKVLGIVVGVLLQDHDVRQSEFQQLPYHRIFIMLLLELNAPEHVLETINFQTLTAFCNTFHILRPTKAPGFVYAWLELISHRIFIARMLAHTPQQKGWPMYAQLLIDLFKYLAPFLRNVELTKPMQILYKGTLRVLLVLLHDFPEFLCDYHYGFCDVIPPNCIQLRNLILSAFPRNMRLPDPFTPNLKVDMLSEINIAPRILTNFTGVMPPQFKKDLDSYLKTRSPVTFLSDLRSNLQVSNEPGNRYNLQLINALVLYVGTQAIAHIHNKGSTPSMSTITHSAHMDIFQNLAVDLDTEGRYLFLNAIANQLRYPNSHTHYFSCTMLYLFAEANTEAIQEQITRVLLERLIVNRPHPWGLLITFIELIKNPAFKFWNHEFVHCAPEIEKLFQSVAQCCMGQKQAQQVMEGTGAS
# UniProt Q80U58: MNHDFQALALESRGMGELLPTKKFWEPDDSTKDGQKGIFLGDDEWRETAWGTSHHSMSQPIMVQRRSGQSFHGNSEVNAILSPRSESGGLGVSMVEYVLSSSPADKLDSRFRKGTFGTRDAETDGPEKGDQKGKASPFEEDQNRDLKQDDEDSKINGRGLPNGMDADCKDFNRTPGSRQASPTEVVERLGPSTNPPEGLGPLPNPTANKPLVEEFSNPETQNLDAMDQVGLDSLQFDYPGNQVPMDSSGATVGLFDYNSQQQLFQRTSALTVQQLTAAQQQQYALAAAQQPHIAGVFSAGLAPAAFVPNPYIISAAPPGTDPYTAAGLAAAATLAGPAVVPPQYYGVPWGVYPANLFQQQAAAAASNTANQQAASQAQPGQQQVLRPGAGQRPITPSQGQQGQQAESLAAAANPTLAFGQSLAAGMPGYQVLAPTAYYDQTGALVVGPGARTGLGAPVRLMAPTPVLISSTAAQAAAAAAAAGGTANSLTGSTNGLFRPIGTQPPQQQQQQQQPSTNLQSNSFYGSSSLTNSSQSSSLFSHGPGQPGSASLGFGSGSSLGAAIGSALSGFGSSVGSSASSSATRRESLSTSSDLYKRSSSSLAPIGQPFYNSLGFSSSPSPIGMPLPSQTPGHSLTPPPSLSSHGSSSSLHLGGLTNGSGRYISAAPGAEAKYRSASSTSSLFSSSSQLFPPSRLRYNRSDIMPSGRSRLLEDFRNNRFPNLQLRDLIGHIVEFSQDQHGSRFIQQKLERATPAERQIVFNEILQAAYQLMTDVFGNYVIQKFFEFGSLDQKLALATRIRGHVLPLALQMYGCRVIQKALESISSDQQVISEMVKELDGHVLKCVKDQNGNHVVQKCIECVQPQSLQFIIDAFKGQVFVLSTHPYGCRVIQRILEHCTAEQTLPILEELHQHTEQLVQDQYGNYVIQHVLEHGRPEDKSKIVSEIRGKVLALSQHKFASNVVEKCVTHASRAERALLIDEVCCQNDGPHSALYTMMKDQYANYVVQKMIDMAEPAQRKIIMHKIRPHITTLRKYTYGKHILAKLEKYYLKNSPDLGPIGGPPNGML
# Read-outs that look alike come from different tables or passages of the source. Results are given in words; binding and its absence hold for the method and conditions named. For some assays here: In cells and extracts the contact can be indirect. Some entries that bind do so weakly or less than the wild type.
# Tests used:
# Myc-PUM1-T1035S (human) [1] = target: Myc-PUM1-T1035S (human) (UniProt Q14671); experiment: co-IP
# Myc-PUM1-WT (human) [2] = target: Myc-PUM1-WT (human) (UniProt Q14671); experiment: co-IP
# Myc-PUM1-T1035S (human) [3] = target: Myc-PUM1-T1035S (human) (UniProt Q14671); experiment: co-IP; remark: listed apart in the source
# Myc-PUM1-WT (human) [4] = target: Myc-PUM1-WT (human) (UniProt Q14671); experiment: co-IP; remark: listed apart in the source
# Myc-PUM1-R1147W (human) = Myc-PUM1-R1147W (human) (UniProt Q14671); experiment: co-IP
# [5] = target: Pumilio1 (Pum1), mouse (mouse (endogenous in brain)) (UniProt Q80U78); experiment: co-IP
# [6] = target: Pumilio1 (Pum1), mouse (mouse (endogenous in brain)) (UniProt Q80U78); experiment: co-IP; remark: listed apart in the source
# [7] = target: GST-PUM2, recombinant (human) (UniProt Q8TB72); experiment: pull-down
# [8] = target: Pumilio1 (Pum1), mouse (mouse (endogenous in brain)) (UniProt Q80U78); experiment: co-IP; remark: listed apart in the source
# [9] = target: Rptor, mouse (mouse (endogenous in brain)) (UniProt Q8K4Q0); experiment: co-IP
# [10] = target: Ago2, mouse (mouse (endogenous in brain)) (UniProt Q8CJG0); experiment: co-IP
# [11] = target: Cad, mouse (mouse (endogenous in brain)) (UniProt B2RQC6); experiment: co-IP
# [12] = target: Fzr1, mouse (mouse (endogenous in brain)) (UniProt Q9R1K5); experiment: co-IP
# [13] = target: Anapc1, mouse (mouse (endogenous in brain)) (UniProt P53995); experiment: co-IP
# [14] = target: Cnot1, mouse (mouse (endogenous in brain)) (UniProt Q6ZQ08); experiment: co-IP
# [15] = target: Pum2, mouse (mouse (endogenous in brain)) (UniProt Q80U58); experiment: co-IP
# [16] = target: Ago2, mouse (mouse (endogenous in brain)) (UniProt Q8CJG0); experiment: co-IP; remark: listed apart in the source
# [17] = target: Cnot1, mouse (mouse (endogenous in brain)) (UniProt Q6ZQ08); experiment: co-IP; remark: listed apart in the source
# [18] = target: Pum2, mouse (mouse (endogenous in brain)) (UniProt Q80U58); experiment: co-IP; remark: listed apart in the source
substance,measurement,setting,value
GST-PUM1-WT (from UniProt Q14671-3 1-1188),binding,Myc-PUM1-T1035S (human) [1],binds
same,binding,Myc-PUM1-WT (human) [2],binds
same,binding,Myc-PUM1-T1035S (human) [3],binds
same,binding,Myc-PUM1-WT (human) [4],binds
same,binding,Myc-PUM1-R1147W (human),binds
"Cnot1, mouse (from UniProt Q6ZQ08 1-2375)",binding,[5],binds
same,binding,[6],binds
"MBP-SNAP-PUM1-His6, recombinant (from UniProt Q14671-3 1-1188)",binding,[7],binds
"Cad, mouse (from UniProt B2RQC6 1-2225)",binding,[5],binds
"Ago3, mouse (from UniProt Q8CJF9 1-860)",binding,[5],no binding
same,binding,[8],no binding
"Fzr1, mouse (from UniProt Q9R1K5 1-493)",binding,[5],binds
"Pumilio1 (Pum1), mouse (from UniProt Q80U78 1-1189)",binding,[9],binds
same,binding,[10],binds
same,binding,[11],binds
same,binding,[12],binds
same,binding,[13],binds
same,binding,[14],binds
same,binding,[15],binds
same,binding,[16],binds
same,binding,[17],binds
same,binding,[18],binds
"Anapc1, mouse (from UniProt P53995 1-1944)",binding,[5],binds
"Ago1, mouse (from UniProt Q8CJG1 1-857)",binding,[5],no binding
same,binding,[8],no binding
"Rptor, mouse (from UniProt Q8K4Q0 1-1335)",binding,[5],binds
GST-CNOT1 (from UniProt A5YKK6 1-2376),binding,Myc-PUM1-WT (human) [2],binds
"Pum2, mouse (from UniProt Q80U58 1-1066)",binding,[5],binds
same,binding,[6],binds
GST-AGO2 (from UniProt Q9UKV8 1-859),binding,Myc-PUM1-WT (human) [2],binds
"Ago2, mouse (from UniProt Q8CJG0 1-860)",binding,[5],binds
same,binding,[6],binds
